The record followed here is patent US9494592B2, “Reaction-based fluorescent probes for sulfane sulfur and the application in bioimaging” (Washington State University, priority 2013, dated 2016).

This data set in a line: Fluorescence response of probes to Na2S2 (H2S2 equivalent) in PBS buffer with CTAB. The note with it: probe 5.0 μM, Na2S2 0.5 to 25 μM, 10 min, 50 mM PBS, 1 mM CTAB. As to the method:
The stock solution of SSP1 (1 mM) and SSP2 (1 mM) were prepared in CH3CN, respectively. The solutions of various testing species were prepared from Cysteine (Cys), GSH, Homocysteine (Hcy), Glutathione disulfide (GSSG), Na2S.9H2O, Na2S2O3, Na2SO3, Na2SO4, Na2S2 in 50 mM PBS buffer. The stock solution of Cetrimonium bromide (CTAB, 100 mM) and S8 (10 mM) were prepared in EtOH, respectively. The stock solution of Cys-polysulfide (10 mM) was prepared in CH3CN. All the test solution need to be freshly prepared.
Unless otherwise noted, all the measurements were carried out for 10 min at 25° C. in 50 mM PBS buffer (pH 7.4) with 1 mM CTAB according to the following procedure. In a test tube, 3.5 mL of 50 mM PBS buffer (pH 7.4) and 40 μL of the stock solution of CTAB were mixed, and then added 20 μL of the stock solution of SSP1 or SSP2. The resulting solution was mixed well, followed by addition of a requisite volume of testing species sample solution. The final volume of the reaction solution was adjusted to 4 mL with 50 mM PBS buffer (pH 7.4). After mixing and then standing for 10 min at room temperature, a 4-mL portion of the reaction solution was transferred into a 1-cm quartz cell to measure fluorescence with λex=380 nm (for SSP1) or 482 nm (SSP2). In the meantime, a blank solution containing no testing species sample was prepared and measured under the same conditions for comparison. […]

`O=C(Oc1ccc2ccc(=O)oc2c1)c1ccccc1S` [SSP1]: the detection limit came out at 73 nM.
To `COc1ccc2c(c1)Oc1cc(OC(=O)c3ccccc3S)ccc1C21OC(=O)c2ccccc21` (centres unmarked) [SSP2] belongs 32 nM.
